pEC50: −log10 of the molar value. At least one structure is not confirmed: it was looked up by name or label, or the drawing left a doubt. Positions of bridges follow the written chain, without caps; N, C: chain ends. Non-standard residues stand in square brackets, D forms with d. Residues, ends and D or L forms follow the SMILES beside them. pGlu = O=C1CC[C@@H](C(=O)O)N1
Legend:
[1] = biological target: T1, Natriuretic Peptide Receptor-A (NPR-A) signaling in MDCK cells (Canis lupus familiaris, UniProt A0A8I3MHU3); format: cell-based, canine; conditions: stimulation of cGMP accumulation in MDCK cells
T1 sequence (A0A8I3MHU3 32-1060): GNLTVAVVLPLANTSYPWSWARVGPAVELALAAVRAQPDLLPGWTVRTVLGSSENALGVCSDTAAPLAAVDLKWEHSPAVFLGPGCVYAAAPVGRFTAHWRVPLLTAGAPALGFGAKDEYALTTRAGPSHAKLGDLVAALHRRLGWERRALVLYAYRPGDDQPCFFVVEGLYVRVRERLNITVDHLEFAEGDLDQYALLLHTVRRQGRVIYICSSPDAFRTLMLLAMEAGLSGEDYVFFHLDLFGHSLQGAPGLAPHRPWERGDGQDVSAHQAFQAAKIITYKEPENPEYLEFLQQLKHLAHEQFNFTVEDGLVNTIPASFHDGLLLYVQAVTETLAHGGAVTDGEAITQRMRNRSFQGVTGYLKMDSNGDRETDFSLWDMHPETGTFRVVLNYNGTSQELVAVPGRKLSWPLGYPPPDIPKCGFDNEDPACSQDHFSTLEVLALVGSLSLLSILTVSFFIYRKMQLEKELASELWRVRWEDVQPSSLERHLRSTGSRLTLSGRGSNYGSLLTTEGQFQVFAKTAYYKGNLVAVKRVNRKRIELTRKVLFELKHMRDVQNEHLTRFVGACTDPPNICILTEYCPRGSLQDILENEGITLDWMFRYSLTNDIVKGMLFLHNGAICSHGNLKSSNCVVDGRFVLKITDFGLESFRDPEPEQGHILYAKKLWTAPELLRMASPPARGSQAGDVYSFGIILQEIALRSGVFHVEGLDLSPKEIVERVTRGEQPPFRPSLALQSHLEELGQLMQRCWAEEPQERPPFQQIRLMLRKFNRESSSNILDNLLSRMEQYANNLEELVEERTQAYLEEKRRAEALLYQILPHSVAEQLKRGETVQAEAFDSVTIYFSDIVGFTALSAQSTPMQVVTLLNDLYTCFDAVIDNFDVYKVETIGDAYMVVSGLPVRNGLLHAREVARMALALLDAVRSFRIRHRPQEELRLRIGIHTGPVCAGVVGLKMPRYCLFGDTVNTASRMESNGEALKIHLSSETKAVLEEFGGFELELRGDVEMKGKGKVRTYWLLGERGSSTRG

[2] = biological target: T2, NPR-A signaling in HeLa cells (Homo sapiens, UniProt P16066); assay: cGMP AlphaScreen assay in HeLa cells (Examples 14, 15); format: cell-based; conditions: cGMP accumulation in HeLa cells, 30 minutes at 37° C.
T2 construct: Cyclic GMP (cGMP) elevation in HeLa cells in response to Natriuretic Peptide stimulation; endogenous in cells; host or cells: HeLa cells
T2 sequence (P16066 33-1061): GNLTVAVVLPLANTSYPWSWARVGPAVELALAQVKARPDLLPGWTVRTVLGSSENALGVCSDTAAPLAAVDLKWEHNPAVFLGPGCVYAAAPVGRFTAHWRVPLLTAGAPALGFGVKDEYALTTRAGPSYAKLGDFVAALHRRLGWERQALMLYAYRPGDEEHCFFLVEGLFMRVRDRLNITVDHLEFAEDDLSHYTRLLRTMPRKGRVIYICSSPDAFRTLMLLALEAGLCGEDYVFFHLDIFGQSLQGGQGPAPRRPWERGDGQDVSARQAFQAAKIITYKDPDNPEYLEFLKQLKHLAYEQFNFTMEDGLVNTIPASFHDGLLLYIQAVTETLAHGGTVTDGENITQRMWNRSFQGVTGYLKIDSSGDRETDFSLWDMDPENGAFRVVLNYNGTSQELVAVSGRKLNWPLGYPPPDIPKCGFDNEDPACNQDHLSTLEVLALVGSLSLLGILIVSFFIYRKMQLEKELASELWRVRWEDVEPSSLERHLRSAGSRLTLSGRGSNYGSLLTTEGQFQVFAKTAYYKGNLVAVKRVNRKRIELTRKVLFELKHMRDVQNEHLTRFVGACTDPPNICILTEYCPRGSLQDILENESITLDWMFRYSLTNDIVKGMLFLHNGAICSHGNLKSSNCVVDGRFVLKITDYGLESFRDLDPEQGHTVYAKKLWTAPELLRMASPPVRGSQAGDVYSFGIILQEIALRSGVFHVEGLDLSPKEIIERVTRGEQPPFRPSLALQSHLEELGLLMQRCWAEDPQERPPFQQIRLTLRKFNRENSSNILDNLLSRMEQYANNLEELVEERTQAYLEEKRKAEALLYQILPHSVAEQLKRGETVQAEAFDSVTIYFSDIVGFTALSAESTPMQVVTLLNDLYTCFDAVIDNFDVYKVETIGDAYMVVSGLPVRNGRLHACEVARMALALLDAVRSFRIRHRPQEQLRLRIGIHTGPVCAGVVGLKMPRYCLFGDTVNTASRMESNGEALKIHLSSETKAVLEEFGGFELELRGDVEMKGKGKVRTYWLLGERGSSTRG
Experimental: HeLa cells were maintained in RPMI cell culture medium (Gihco Invitrogen, Mt Waverley, Australia) supplemented with 10% Foetal Bovine Serum (Cambrex Bio Science, Rockland, USA). Upon reaching confluence, cells were sub-cultured such that they would be 70-90% confluent at time of assay.
Cyclic GMP (cGMP) elevation in HeLa cells in response to Natriuretic Peptide stimulation was performed using a cGMP AlphaScreen kit (PerkinElmer, Boston, USA), as follows for normal experiments: Cells were detached, pelleted to remove growth medium, and resuspended in Stimulation Buffer (Hank's Balanced Salt Solution, 0.1% Bovine Serum Albumin [BSA] (Sigma-Aldrich, Castle Hill, Australia), 1 mM 3-Isobutyl-1-methylxanthine [IBMX] (Sigma-Aldrich, Castle Hill, Australia)) and diluted to 6×10^6 cells per mL (30 000 cells per 5 μL). 5 μL of cells were added to wells of white 384-well OptiPlates (PerkinElmer, Boston, USA), and stimulated with increasing concentrations of peptide for 30 minutes at 37° C. Cells were then lysed with 10 μL Lysis buffer (dH2O, 0.3% Tween-20 (Sigma-Aldrich, Castle Hill, Australia), 5 mM HEPES (JRH Biosciences, Kansas, USA) and 0.1% BSA) and 5 μL acceptor bead mix (10 μL per mL acceptor beads and 1/3000 anti-cGMP antibody (BioVision, Mountain View, USA) in lysis buffer) added per well in the dark. Plates were incubated in the dark at room temperature for 30 minutes, then 5 μL donor bead mix (10 μL per ML donor beads and 0.3 nM biotinylated cGMP in lysis buffer) was added per well in the dark and the plate incubated overnight at room temperature. Signal was read using an EnVision plate reader (PerkinElmer, Boston, USA) and data analysed using Prism software. The cGMP standard curve was performed as per manufacturer's instructions.
To examine whether TNPc and synthetic analogs produced in the inventors' laboratory could stimulate NPR-A signaling, cGMP elevations in HeLa cells in response to these peptides were measured, as described above.

Structure (SMILES) | −Log10EC50 (pEC50) ± Standard Error [1] | EC50 ([1]; read-out: EC50 (M) ± Standard Error) [M] | pEC50 [2] | −Log10EC50 (pEC50) ± Standard Error [2]
CC[C@H](C)[C@H](NC(=O)[C@H](CCCCN)NC(=O)[C@H](CO)NC(=O)[C@H](CC(=O)O)NC(=O)[C@H](CO)NC(=O)[C@@H]1CCC(=O)N1)C(=O)NCC(=O)N[C@@H](CC(N)=O)C(=O)NCC(=O)N[C@H]1CSSC[C@@H](C(=O)N[C@@H](CC(N)=O)C(=O)N[C@@H](CCCNC(=N)N)C(=O)N[C@H](C(=O)N[C@@H](CCSC)C(=O)N[C@@H](CCC(N)=O)C(=O)N[C@@H](CC(N)=O)C(=O)N2CCC[C@H]2C(=O)N2CCC[C@H]2C(=O)N[C@@H](CCCCN)C(=O)N[C@@H](CCCCN)C(=O)N[C@@H](Cc2ccccc2)C(=O)N[C@@H](CO)C(=O)NCC(=O)N[C@@H](CCC(=O)O)C(=O)O)[C@@H](C)CC)NC(=O)CNC(=O)[C@H](CC(C)C)NC(=O)CNC(=O)[C@H](CO)NC(=O)[C@H](C(C)C)NC(=O)[C@H](CO)NC(=O)CNC(=O)[C@H]([C@@H](C)CC)NC(=O)[C@H](CCCNC(=N)N)NC(=O)[C@H](CC(=O)O)NC(=O)[C@H](CC(C)C)NC(=O)[C@@H]2CCCN2C(=O)[C@H](Cc2ccccc2)NC(=O)CNC(=O)[C@H](Cc2ccccc2)NC1=O [Peptide Z0-TNPc] ([pGlu]SDSKIGNGCFGFPLDRIGSVSGLGCNRIMQNPPKKFSGE-OH; disulfide 10-26) | 6.507 ± 0.4715 | 9.71e-07 |  | 
CC[C@H](C)[C@H](NC(=O)[C@H](CCCCN)NC(=O)[C@H](CO)NC(=O)[C@H](CC(=O)O)NC(=O)[C@@H](N)CO)C(=O)NCC(=O)N[C@@H](CC(N)=O)C(=O)NCC(=O)N[C@H]1CSSC[C@@H](C(=O)N[C@@H](CC(N)=O)C(=O)N[C@@H](CCCNC(=N)N)C(=O)N[C@H](C(=O)N[C@@H](CCSC)C(=O)N[C@@H](CCC(N)=O)C(=O)N[C@@H](CC(N)=O)C(=O)N2CCC[C@H]2C(=O)N2CCC[C@H]2C(=O)N[C@@H](CCCCN)C(=O)N[C@@H](CCCCN)C(=O)N[C@@H](Cc2ccccc2)C(=O)N[C@@H](CO)C(=O)NCC(=O)N[C@@H](CCC(=O)O)C(=O)O)[C@@H](C)CC)NC(=O)CNC(=O)[C@H](CC(C)C)NC(=O)[C@H](CC(N)=O)NC(=O)[C@H](CO)NC(=O)[C@H](C(C)C)NC(=O)[C@H](Cc2c[nH]cn2)NC(=O)[C@H](CC(N)=O)NC(=O)[C@H]([C@@H](C)CC)NC(=O)[C@H](CCCNC(=N)N)NC(=O)[C@H](CC(=O)O)NC(=O)[C@H]([C@@H](C)CC)NC(=O)[C@H](CCCCN)NC(=O)[C@H](CCCNC(=N)N)NC(=O)CNC(=O)[C@H](Cc2ccccc2)NC1=O [H12R-TDT] |  |  | 8.05 | −8.051 ± 0.1789
CC[C@H](C)[C@H](NC(=O)[C@H](CCCCN)NC(=O)[C@H](CO)NC(=O)[C@H](CC(=O)O)NC(=O)[C@@H](N)CO)C(=O)NCC(=O)N[C@@H](CC(N)=O)C(=O)NCC(=O)N[C@H]1CSSC[C@@H](C(=O)N[C@@H](CC(N)=O)C(=O)N[C@@H](CCCNC(=N)N)C(=O)N[C@H](C(=O)N[C@@H](CCSC)C(=O)N[C@@H](CCC(N)=O)C(=O)N[C@@H](CC(N)=O)C(=O)N2CCC[C@H]2C(=O)N2CCC[C@H]2C(=O)N[C@@H](CCCCN)C(=O)N[C@@H](CCCCN)C(=O)N[C@@H](Cc2ccccc2)C(=O)N[C@@H](CO)C(=O)NCC(=O)N[C@@H](CCC(=O)O)C(=O)O)[C@@H](C)CC)NC(=O)CNC(=O)[C@H](CC(C)C)NC(=O)[C@H](CC(N)=O)NC(=O)[C@H](CO)NC(=O)[C@H](C(C)C)NC(=O)[C@H](Cc2c[nH]cn2)NC(=O)[C@H](CC(N)=O)NC(=O)[C@H]([C@@H](C)CC)NC(=O)[C@H](CCCNC(=N)N)NC(=O)[C@H](CC(=O)O)NC(=O)[C@H]([C@@H](C)CC)NC(=O)[C@H](CCCCN)NC(=O)[C@H](C)NC(=O)CNC(=O)[C@H](Cc2ccccc2)NC1=O [H12A-TDT] |  |  | 6.64 | −6.6483 ± 0.1815
